Measured values as given in patent US11235004B2, “Lymphocyte cell lines and uses thereof” (Innovative Cellular Therapeutics Holdings, Ltd., priority 2017, dated 2022).
For at least one compound, name, drawing or mass did not settle the structure.

Test system: anti-CD19 CAR proliferable T cells
Experiment: Dox switch: growth of anti-CD19 CAR proliferable T cells with or without Dox
Assay type: cell-based, human

C[C@H]1c2cccc(O)c2C(=O)C2=C(O)[C@]3(O)C(=O)C(C(N)=O)=C(O)[C@@H](N(C)C)[C@@H]3[C@@H](O)[C@@H]21 [Dox, doxycycline]
hTERT expression (Dox added to the culture, 2 ug/ML): expressed
fate of cells (Dox not added): gradually began to die
